Assay results: article PMC4284802, “The tumour suppressor DLC2 ensures mitotic fidelity by coordinating spindle positioning and cell–cell adhesion” (Nature Communications, 2014)
No constants are given. Whether binding was seen depends on the method and setting. A result given as binding can be weak or reduced; the word gives no strength. For some assays here: Sequences can lack the tags named with a protein. For some assays here: In cells and extracts the contact can be indirect.

T1: DLC2 (Deleted in Liver Cancer 2; STARD13) (human (endogenous in HCE)) (UniProt Q9Y3M8)
T1 sequence: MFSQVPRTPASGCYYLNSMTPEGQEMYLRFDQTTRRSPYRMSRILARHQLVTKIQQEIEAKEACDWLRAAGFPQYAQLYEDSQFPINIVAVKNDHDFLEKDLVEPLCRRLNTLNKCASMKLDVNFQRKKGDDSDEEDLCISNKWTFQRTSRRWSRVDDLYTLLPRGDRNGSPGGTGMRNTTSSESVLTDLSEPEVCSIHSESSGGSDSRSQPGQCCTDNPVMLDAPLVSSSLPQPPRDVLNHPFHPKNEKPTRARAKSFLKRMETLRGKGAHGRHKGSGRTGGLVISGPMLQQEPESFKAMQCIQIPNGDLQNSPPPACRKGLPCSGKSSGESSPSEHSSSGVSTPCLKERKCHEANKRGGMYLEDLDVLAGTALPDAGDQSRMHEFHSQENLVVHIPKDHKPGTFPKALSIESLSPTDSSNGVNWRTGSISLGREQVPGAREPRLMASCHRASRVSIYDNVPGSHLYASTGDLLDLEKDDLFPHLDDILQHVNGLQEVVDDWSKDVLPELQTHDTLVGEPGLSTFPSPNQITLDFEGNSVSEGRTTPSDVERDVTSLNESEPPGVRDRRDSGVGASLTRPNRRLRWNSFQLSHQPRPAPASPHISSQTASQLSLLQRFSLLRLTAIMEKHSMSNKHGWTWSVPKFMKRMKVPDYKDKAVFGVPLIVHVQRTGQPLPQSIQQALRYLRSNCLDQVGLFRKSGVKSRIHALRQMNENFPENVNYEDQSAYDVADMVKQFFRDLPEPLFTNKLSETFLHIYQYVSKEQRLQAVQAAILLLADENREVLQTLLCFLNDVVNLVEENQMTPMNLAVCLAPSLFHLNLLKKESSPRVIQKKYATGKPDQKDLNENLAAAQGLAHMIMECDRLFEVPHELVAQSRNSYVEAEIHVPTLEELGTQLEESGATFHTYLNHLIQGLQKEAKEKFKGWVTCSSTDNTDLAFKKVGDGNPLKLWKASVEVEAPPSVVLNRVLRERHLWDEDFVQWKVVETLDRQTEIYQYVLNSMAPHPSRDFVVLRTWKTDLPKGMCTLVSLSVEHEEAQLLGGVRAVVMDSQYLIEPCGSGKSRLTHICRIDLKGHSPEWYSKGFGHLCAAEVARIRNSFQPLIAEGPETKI


Legend:
[1] = molecular target: T1, DLC2 (Deleted in Liver Cancer 2; STARD13) (human (endogenous in HCE)); assay: co-IP; HCE cell extracts (0.5% Triton-X-100 in PBS, 4 °C, protease and phosphatase inhibitors); goat anti-DLC2 or rabbit anti-Kif1B antibodies conjugated to Protein G-Sepharose, control IgG of the same species; 2 h at 4 °C; immunoblot
[2] = molecular target: taxol-stabilized microtubules; assay: co-sedimentation; GST-fusion proteins (20 μg ml^-1) incubated with taxol-stabilized microtubules (0.45 mg ml^-1) 30 min at room temperature, centrifugation at 55,000 r.p.m. 40 min at 25 °C; supernatant and pellet immunoblotted for GST and α-tubulin; both purified

Molecule	binding [1]	binding [2]
E-cadherin (human (endogenous in HCE))	binds	
DLC2 SAM domain (residues 1-130) fused to GST (domain or fragment, human, UniProt Q9Y3M8-1 1-130, looked up, cloned into pGEX4T3; Vector pGEX4T3; also called SAM domain construct; GST-fusion protein containing the SAM domain; source: E. coli BL21pLysS, purified (glutathione-agarose)) MFSQVPRTPASGCYYLNSMTPEGQEMYLRFDQTTRRSPYRMSRILARHQLVTKIQQEIEAKEACDWLRAAGFPQYAQLYEDSQFPINIVAVKNDHDFLEKDLVEPLCRRLNTLNKCASMKLDVNFQRKKG		binds
